Experimental data reported in the supplement of paper PMC10849652.
The other results are listed elsewhere or left out.

By UniProt entry, the sequences of proteins in these tests, tags left out. Where a name states a change or a piece, a line headed by the entry shows the natural chain unless it says otherwise.
UniProt O00194: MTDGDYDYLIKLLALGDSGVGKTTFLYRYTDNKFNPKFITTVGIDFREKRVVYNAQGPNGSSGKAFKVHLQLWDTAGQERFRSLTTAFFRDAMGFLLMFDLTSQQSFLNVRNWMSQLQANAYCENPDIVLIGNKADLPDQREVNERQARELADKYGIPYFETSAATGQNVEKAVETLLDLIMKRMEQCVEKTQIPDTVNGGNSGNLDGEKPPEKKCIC
UniProt O14966: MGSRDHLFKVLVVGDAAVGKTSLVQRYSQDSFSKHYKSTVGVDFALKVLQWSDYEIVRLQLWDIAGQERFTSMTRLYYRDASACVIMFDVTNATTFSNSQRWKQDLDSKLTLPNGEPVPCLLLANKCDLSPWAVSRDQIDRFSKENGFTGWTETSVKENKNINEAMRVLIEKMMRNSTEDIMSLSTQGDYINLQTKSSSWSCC
UniProt Q2PPJ7: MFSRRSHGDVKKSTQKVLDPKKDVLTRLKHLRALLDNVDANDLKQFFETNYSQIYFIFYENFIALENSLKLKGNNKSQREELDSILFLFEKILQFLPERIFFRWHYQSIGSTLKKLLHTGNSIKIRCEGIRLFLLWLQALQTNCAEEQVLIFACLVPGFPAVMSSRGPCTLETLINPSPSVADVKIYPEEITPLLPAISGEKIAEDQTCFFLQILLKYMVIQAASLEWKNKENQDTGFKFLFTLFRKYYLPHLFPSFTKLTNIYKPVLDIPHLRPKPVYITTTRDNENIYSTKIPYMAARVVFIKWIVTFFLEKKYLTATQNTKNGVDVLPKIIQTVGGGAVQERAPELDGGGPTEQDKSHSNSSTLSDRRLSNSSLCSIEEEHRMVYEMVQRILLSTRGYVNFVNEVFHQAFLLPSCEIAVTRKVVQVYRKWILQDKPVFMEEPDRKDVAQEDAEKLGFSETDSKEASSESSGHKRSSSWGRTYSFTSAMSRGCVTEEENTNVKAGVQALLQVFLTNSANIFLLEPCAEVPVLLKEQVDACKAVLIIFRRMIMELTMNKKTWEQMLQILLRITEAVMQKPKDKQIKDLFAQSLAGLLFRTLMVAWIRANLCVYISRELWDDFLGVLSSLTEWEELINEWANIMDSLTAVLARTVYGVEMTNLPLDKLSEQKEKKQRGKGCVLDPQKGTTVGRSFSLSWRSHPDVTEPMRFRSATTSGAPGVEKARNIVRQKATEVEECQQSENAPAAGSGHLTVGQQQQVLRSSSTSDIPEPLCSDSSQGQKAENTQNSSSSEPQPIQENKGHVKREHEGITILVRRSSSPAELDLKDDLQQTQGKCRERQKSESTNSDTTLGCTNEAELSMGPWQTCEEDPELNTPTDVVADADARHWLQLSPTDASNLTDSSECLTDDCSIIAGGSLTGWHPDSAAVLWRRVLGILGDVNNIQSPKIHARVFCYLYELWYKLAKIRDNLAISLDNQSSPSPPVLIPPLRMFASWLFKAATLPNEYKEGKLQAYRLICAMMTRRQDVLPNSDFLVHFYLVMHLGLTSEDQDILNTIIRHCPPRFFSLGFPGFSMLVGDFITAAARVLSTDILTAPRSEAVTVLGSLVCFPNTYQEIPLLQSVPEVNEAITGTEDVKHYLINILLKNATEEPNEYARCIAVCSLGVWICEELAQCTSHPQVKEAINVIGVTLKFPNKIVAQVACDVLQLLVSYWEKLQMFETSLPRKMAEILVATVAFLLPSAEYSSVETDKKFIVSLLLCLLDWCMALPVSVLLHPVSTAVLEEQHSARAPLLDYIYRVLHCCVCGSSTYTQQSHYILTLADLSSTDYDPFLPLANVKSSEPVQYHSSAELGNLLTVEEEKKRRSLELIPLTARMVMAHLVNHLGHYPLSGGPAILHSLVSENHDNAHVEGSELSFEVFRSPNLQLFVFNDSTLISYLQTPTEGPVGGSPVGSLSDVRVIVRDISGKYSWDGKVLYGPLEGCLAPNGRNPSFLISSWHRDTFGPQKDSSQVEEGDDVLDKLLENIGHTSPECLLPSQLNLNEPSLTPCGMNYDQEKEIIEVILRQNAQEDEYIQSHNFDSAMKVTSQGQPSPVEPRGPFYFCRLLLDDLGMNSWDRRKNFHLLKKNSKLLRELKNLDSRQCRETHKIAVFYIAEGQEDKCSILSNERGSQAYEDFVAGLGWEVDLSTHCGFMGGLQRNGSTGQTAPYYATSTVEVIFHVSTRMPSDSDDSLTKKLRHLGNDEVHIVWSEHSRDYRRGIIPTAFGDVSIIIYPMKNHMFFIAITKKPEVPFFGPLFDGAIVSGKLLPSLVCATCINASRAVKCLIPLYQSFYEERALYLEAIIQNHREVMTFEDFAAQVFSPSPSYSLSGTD
UniProt Q9BRQ0: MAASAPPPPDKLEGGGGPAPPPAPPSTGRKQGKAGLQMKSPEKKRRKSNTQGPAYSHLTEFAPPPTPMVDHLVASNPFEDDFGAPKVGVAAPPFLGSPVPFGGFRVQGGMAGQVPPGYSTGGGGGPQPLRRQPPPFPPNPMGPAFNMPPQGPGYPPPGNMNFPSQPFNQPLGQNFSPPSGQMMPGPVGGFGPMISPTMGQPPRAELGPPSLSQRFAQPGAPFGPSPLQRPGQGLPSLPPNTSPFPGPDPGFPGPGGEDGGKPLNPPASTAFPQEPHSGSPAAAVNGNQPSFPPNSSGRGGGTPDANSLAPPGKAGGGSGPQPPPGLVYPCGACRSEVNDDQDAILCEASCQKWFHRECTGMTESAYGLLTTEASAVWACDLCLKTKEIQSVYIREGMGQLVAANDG
UniProt Q86X27: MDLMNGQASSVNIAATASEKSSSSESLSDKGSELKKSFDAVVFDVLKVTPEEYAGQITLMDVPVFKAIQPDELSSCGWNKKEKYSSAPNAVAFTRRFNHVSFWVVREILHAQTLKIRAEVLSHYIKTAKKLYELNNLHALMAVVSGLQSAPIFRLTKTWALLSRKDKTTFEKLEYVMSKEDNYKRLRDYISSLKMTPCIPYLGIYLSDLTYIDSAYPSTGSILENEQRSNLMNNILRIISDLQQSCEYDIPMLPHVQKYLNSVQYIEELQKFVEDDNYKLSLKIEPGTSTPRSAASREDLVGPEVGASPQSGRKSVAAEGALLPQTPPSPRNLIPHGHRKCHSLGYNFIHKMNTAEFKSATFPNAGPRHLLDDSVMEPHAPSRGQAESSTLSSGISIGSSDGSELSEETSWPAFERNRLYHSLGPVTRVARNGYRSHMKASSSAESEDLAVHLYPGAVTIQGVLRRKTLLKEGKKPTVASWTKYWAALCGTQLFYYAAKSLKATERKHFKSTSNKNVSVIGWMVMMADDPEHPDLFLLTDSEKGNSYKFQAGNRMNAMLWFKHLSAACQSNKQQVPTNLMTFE
UniProt Q86YS3: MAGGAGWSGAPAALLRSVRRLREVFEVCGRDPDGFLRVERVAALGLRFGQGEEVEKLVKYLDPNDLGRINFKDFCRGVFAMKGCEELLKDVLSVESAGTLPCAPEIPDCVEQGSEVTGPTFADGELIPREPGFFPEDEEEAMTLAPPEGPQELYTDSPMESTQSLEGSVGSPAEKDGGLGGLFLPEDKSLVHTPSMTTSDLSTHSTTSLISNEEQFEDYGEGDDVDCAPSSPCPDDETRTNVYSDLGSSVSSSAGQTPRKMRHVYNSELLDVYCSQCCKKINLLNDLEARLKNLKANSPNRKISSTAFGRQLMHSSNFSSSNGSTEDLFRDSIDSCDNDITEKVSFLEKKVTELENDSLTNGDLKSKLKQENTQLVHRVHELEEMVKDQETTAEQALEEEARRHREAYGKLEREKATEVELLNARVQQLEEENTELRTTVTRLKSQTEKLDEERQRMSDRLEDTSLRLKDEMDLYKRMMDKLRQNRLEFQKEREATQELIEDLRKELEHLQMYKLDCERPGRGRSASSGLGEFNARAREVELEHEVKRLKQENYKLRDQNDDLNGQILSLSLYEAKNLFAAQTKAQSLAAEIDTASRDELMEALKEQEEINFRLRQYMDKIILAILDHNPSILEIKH
UniProt O00391: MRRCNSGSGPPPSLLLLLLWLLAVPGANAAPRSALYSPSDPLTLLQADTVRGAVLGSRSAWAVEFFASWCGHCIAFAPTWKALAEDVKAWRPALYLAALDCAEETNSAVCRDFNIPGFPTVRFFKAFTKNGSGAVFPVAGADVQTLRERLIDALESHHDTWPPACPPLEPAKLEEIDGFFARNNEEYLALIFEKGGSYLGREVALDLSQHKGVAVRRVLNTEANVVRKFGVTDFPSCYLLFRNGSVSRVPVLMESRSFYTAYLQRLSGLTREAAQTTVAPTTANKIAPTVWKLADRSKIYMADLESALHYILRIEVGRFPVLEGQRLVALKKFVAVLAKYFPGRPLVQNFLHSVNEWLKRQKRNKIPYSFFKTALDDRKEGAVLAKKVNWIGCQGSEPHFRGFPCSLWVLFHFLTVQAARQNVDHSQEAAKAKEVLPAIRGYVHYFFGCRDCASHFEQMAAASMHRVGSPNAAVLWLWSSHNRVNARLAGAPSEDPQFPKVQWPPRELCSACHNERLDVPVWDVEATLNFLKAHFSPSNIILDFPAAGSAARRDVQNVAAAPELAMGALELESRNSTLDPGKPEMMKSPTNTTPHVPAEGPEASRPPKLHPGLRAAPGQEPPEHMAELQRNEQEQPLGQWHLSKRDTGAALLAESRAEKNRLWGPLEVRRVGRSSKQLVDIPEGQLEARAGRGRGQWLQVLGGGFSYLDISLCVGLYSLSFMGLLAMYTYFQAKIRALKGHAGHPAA
UniProt O95716: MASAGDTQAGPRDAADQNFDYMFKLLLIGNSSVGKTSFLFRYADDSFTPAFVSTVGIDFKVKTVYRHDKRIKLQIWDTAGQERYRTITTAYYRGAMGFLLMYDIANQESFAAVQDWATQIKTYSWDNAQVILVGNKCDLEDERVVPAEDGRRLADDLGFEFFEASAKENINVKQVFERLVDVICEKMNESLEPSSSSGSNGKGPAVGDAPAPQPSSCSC
UniProt O75154: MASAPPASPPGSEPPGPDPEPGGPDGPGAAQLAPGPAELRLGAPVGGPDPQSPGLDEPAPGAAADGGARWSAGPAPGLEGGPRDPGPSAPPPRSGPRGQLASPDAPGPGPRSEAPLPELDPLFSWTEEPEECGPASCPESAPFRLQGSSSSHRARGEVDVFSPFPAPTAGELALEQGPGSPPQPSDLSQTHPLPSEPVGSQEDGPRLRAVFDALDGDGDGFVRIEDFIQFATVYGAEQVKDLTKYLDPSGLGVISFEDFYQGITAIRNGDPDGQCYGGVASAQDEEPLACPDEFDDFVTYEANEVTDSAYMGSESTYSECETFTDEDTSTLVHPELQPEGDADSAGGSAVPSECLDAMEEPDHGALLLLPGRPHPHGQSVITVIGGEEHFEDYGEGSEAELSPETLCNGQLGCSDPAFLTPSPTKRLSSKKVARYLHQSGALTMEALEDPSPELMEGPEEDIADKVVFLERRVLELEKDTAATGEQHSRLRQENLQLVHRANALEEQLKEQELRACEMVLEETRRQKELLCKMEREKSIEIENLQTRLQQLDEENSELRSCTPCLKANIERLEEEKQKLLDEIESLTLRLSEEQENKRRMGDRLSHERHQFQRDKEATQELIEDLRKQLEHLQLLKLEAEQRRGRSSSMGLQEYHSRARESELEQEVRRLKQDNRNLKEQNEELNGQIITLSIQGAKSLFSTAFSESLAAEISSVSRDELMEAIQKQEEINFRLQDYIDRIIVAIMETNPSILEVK
UniProt Q96DA2: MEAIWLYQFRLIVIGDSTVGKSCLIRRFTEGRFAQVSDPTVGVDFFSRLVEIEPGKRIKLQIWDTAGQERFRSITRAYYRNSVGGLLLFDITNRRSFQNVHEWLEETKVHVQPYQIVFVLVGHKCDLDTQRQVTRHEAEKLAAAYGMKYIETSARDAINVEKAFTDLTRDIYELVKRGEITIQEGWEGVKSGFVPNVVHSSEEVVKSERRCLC
UniProt Q15771: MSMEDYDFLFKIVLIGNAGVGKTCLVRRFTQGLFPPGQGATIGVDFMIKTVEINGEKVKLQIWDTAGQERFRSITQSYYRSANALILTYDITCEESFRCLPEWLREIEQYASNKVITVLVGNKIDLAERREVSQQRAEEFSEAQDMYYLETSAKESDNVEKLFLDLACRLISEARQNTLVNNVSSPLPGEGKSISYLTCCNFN

How the values were obtained:
Test in all cases: log2 fold change, soluble protein after heating vs DMSO (PISA); higher = thermal stabilisation; K562 lysate, 10 uM; active = over 0.2 and 3.5 SD of the protein, either way, in both replicates (recomputed)
lapatinib = compound: CS(=O)(=O)CCNCc1ccc(-c2ccc3ncnc(Nc4ccc(OCc5cccc(F)c5)c(Cl)c4)c3c2)o1 [lapatinib]
How it was run: (§1)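 K562 pellets were dounce-homogenised in PBS pH 7.4 with 1 mM MgCl2, and the crude extract at 1 mg/mL protein was treated with 10 μM compound for 30 min. Aliquots were heated for 3 min across 48°C-58°C, pooled, and brought to 0.5% NP-40 at 4°C; soluble protein was the supernatant after 21,000xg for 90 min. Soluble protein was quantified by TMTpro 16plex LC-MS/MS with channel sums equalised, and reported as log2 fold change in thermal stability against DMSO controls, with values from duplicates.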

[1] = compound: C[C@H](C1=CC=C(C=C1)C(=O)NC2=C3C=CNC3=NC=C2)N
How it was run: as §1

duvelisib = compound: C[C@H](Nc1ncnc2nc[nH]c12)c1cc2cccc(Cl)c2c(=O)n1-c1ccccc1 [duvelisib]
How it was run: as §1

gandotinib = compound: Cc1cc(Nc2cc(CN3CCOCC3)c3nc(C)c(Cc4ccc(Cl)cc4F)n3n2)n[nH]1 [gandotinib]
How it was run: as §1

tozasertib = compound: Cc1cc(Nc2cc(N3CCN(C)CC3)nc(Sc3ccc(NC(=O)C4CC4)cc3)n2)n[nH]1 [tozasertib]
How it was run: as §1

[2] = compound: Cc1cccc(CC(=O)N2CCc3c2ccc(-c2cn(C)c4ncnc(N)c24)c3F)n1
How it was run: as §1

nilotinib = compound: Cc1cn(-c2cc(NC(=O)c3ccc(C)c(Nc4nccc(-c5cccnc5)n4)c3)cc(C(F)(F)F)c2)cn1 [nilotinib]
How it was run: as §1

[3] = compound: Cc1nc(Nc2n[nH]c3c2CN(C(=O)N[C@H](CN(C)C)c2ccccc2)C3(C)C)c2sccc2n1
How it was run: as §1

dasatinib = compound: Cc1nc(Nc2ncc(C(=O)Nc3c(C)cccc3Cl)s2)cc(N2CCN(CCO)CC2)n1 [dasatinib]
How it was run: as §1

[4] = compound: Cc1ncc(-c2ccnc(Nc3ccc(S(C)(=O)=O)cc3)n2)n1C(C)C
How it was run: as §1

[5] = compound: Cn1cc(-c2ccc3c(c2)CCN3C(=O)Cc2cccc(C(F)(F)F)c2)c2c(N)ncnc21
How it was run: as §1

tipifarnib = compound: Cn1cncc1[C@@](N)(c1ccc(Cl)cc1)c1ccc2c(c1)c(-c1cccc(Cl)c1)cc(=O)n2C [tipifarnib]
How it was run: as §1

[6] = compound: NC(=O)c1cnc(N[C@@H]2CCCC[C@@H]2N)nc1Nc1cccc(-n2nccn2)c1
How it was run: as §1

[7] = compound: NC1(c2ccc(-c3nc4ccn5c(=O)[nH]nc5c4cc3-c3ccccc3)cc2)CCC1
How it was run: as §1

pictilisib = compound: CS(=O)(=O)N1CCN(Cc2cc3nc(-c4cccc5[nH]ncc45)nc(N4CCOCC4)c3s2)CC1 [pictilisib]
How it was run: as §1

bafetinib = compound: Cc1ccc(NC(=O)c2ccc(CN3CC[C@H](N(C)C)C3)c(C(F)(F)F)c2)cc1Nc1nccc(-c2cncnc2)n1 [bafetinib]
How it was run: as §1

crizotinib = compound: C[C@@H](Oc1cc(-c2cnn(C3CCNCC3)c2)cnc1N)c1c(Cl)ccc(F)c1Cl [crizotinib]
How it was run: as §1

doramapimod = compound: Cc1ccc(-n2nc(C(C)(C)C)cc2NC(=O)Nc2ccc(OCCN3CCOCC3)c3ccccc23)cc1 [doramapimod]
How it was run: as §1

quisinostat = compound: Cn1cc(CNCC2CCN(c3ncc(C(=O)NO)cn3)CC2)c2ccccc21 [quisinostat]
How it was run: as §1

[8] = compound: NC(=O)Nc1cc(-c2cccc(F)c2)sc1C(=O)N[C@H]1CCCNC1
How it was run: as §1

Measured: log2 fold change

RAB27B (UniProt O00194)
inactive: lapatinib -0.013 | [1] 0.243 | duvelisib 0.117 | gandotinib 0.122 | tozasertib -0.039 | [2] 0.06 | nilotinib -0.007 | [3] -0.06 | dasatinib 0.075 | [4] 0.045 | [5] -0.179 | tipifarnib 0.003 | [6] -0.045 | [7] 0.138

RAB29 (UniProt O14966)
inactive: [1] 0.041 | duvelisib 0.048 | gandotinib -0.084 | [2] 0.012 | dasatinib 0.011 | [5] -0.046 | [7] -0.141

RACK1 (UniProt D6RHH4)
inactive: pictilisib 0.011 | [1] -0.307 | gandotinib -0.054 | bafetinib -0.17 | [2] 0.162

RALGAPA2 (UniProt Q2PPJ7)
inactive: lapatinib -0.142 | crizotinib -0.105 | [1] -0.014 | gandotinib -0.101 | doramapimod -0.027 | [2] 0.03 | quisinostat 0.017 | [8] -0.06 | [6] -0.044

PYGO2 (UniProt Q9BRQ0)
inactive: pictilisib -0.038 | crizotinib 0.067 | [1] 0.014 | duvelisib -0.046 | gandotinib 0.078 | tozasertib -0.076 | doramapimod 0.032 | bafetinib -0.046 | [2] -0.022 | nilotinib 0.01 | [3] 0.044 | dasatinib -0.028 | [4] 0.063 | [5] 0.004 | quisinostat 0.016 | tipifarnib -0.02 | [8] -0.015 | [7] 0.029

RALGPS2 (UniProt Q86X27)
inactive: pictilisib 0.072 | crizotinib -0.244 | [1] -0.118 | gandotinib 0.029 | tozasertib -0.06 | doramapimod 0.005 | bafetinib 0.006 | [2] 0.167 | nilotinib 0.109 | [3] 0.015 | [4] 0.211 | quisinostat -0.279 | tipifarnib -0.056 | [8] 0.147 | [7] -0.153

RAB11FIP4 (UniProt Q86YS3)
inactive: lapatinib 0.155 | pictilisib 0.009 | duvelisib -0.103 | tozasertib -0.03 | bafetinib 0.028 | nilotinib -0.098 | [3] -0.001 | dasatinib 0.142 | [4] -0.003 | [5] -0.106 | tipifarnib -0.196 | [6] -0.07 | [7] -0.004

2 records picked at random from the list so far, as already listed:
RALGPS2 (UniProt Q86X27)
inactive: pictilisib 0.072 | crizotinib -0.244 | [1] -0.118 | gandotinib 0.029 | tozasertib -0.06 | doramapimod 0.005 | bafetinib 0.006 | [2] 0.167 | nilotinib 0.109 | [3] 0.015 | [4] 0.211 | quisinostat -0.279 | tipifarnib -0.056 | [8] 0.147 | [7] -0.153

PYGO2 (UniProt Q9BRQ0)
inactive: pictilisib -0.038 | crizotinib 0.067 | [1] 0.014 | duvelisib -0.046 | gandotinib 0.078 | tozasertib -0.076 | doramapimod 0.032 | bafetinib -0.046 | [2] -0.022 | nilotinib 0.01 | [3] 0.044 | dasatinib -0.028 | [4] 0.063 | [5] 0.004 | quisinostat 0.016 | tipifarnib -0.02 | [8] -0.015 | [7] 0.029

(continued)

RAC3 (UniProt P60763)
inactive: crizotinib 0.031 | [1] 0.107 | gandotinib -0.138 | tozasertib 0.119 | doramapimod 0.002 | [2] 0.048 | quisinostat -0.06 | [8] 0.007 | [7] 0.013

QSOX1 (UniProt O00391)
inactive: crizotinib 0.098 | [1] -0.043 | duvelisib -0.24 | gandotinib 0.011 | tozasertib 0.086 | doramapimod 0.119 | [2] 0.02 | dasatinib 0.242 | [5] -0.214 | quisinostat -0.079 | [8] -0.078 | [7] -0.048

RAB3D (UniProt O95716)
inactive: lapatinib 0.135 | crizotinib 0.029 | duvelisib -0.009 | tozasertib -0.021 | doramapimod 0.017 | dasatinib 0.108 | [5] -0.106 | quisinostat 0.055 | [8] -0.065 | [6] -0.034 | [7] -0.11

RAB11FIP3 isoform 3 (UniProt O75154)
inactive: lapatinib -0.112 | duvelisib -0.128 | tozasertib 0.14 | dasatinib -0.275 | [5] 0.164 | [6] 0.105 | [7] 0.046

RAB39B (UniProt Q96DA2)
inactive: pictilisib -0.063 | [1] -1.16 | gandotinib 0.467 | bafetinib -0.206 | [2] 0.566

RAB30 (UniProt Q15771)
inactive: pictilisib 0.003 | crizotinib 0.015 | [1] 0.003 | duvelisib 0.005 | gandotinib 0.015 | tozasertib 0.081 | doramapimod 0.022 | bafetinib -0.036 | [2] 0.124 | dasatinib 0.025 | [5] 0.018 | quisinostat 0.03 | [8] -0.01 | [7] -0.095
